# From patent US20220268780A1, “METHODS OF PREDICTING ENDOMETRIAL RECEPTIVITY” (HUDSON INSTITUTE OF MEDICAL RESEARCH, priority 2019, published 2022)
# B1: Epithelial cell adhesion molecule (protein, UniProt P16422 24-314, looked up)
# Epithelial cell adhesion …: QEECVCENYKLAVNCFVNNNRQCQCTSVGAQNTVICSKLAAKCLVMKAEMNGSKLGRRAKPEGALQNNDGLYDPDCDESGLFKAKQCNGTSMCWCVNTAGVRRTDKDTEITCSERVRTYWIIIELKHKAREKPYDSKSLRTALQKEITTRYQLDPKFITSILYENNVITIDLVQNSSQKTQNDVDIADVAYYFEKDVKGESLFHSKKMDLTVNGEQLDLDPGQTLIYYVDEKAPEFSMQGLKAGVIAVIVVVVIAVVAGIVVLVISRKKRMAKYEKAEIKEMGEMHRELNA
# B2: Catenin beta-1 (protein, UniProt P35222 2-781, looked up)
# Catenin beta-1: ATQADLMELDMAMEPDRKAAVSHWQQQSYLDSGIHSGATTTAPSLSGKGNPEEEDVDTSQVLYEWEQGFSQSFTQEQVADIDGQYAMTRAQRVRAAMFPETLDEGMQIPSTQFDAAHPTNVQRLAEPSQMLKHAVVNLINYQDDAELATRAIPELTKLLNDEDQVVVNKAAVMVHQLSKKEASRHAIMRSPQMVSAIVRTMQNTNDVETARCTAGTLHNLSHHREGLLAIFKSGGIPALVKMLGSPVDSVLFYAITTLHNLLLHQEGAKMAVRLAGGLQKMVALLNKTNVKFLAITTDCLQILAYGNQESKLIILASGGPQALVNIMRTYTYEKLLWTTSRVLKVLSVCSSNKPAIVEAGGMQALGLHLTDPSQRLVQNCLWTLRNLSDAATKQEGMEGLLGTLVQLLGSDDINVVTCAAGILSNLTCNNYKNKMMVCQVGGIEALVRTVLRAGDREDITEPAICALRHLTSRHQEAEMAQNAVRLHYGLPVVVKLLHPPSHWPLIKATVGLIRNLALCPANHAPLREQGAIPRLVQLLVRAHQDTQRRTSMGGTQQQFVEGVRMEEIVEGCTGALHILARDVHNRIVIRGLNTIPLFVQLLYSPIENIQRVAAGVLCELAQDKEAAEAIEAEGATAPLTELLHSRNEGVATYAAAVLFRMSEDKPQDYKKRLSVELTSSLFRTEPMAWNETADLGLDIGAQGEPLGYRQDDPSYRSFHSGGYGQDALGMDPMMEHEMGGHHPGADYPVDGLPDLGHAQDLMDGLPPGDSNQLAWFDTDL
# B3: CD9 antigen (protein, UniProt P21926 2-228, looked up)
# CD9 antigen: PVKGGTKCIKYLLFGFNFIFWLAGIAVLAIGLWLRFDSQTKSIFEQETNNNNSSFYTGVYILIGAGALMMLVGFLGCCGAVQESQCMLGLFFGFLLVIFAIEIAAAIWGYSHKDEVIKEVQEFYKDTYNKLKTKDEPQRETLKAIHYALNCCGLAGGVEQFISDICPKKDVLETFTVKSCPDAIKEVFDNKFHIIGAVGIGIAVVMIFGMIFSMILCCAIRRNREMV
# B4: Alpha-Parvin (protein, UniProt Q9NVD7 2-372, looked up)
# Alpha-parvin: ATSPQKSPSVPKSPTPKSPPSRKKDDSFLGKLGGTLARRKKAKEVSELQEEGMNAINLPLSPIPFELDPEDTMLEENEVRTMVDPNSRSDPKLQELMKVLIDWINDVLVGERIIVKDLAEDLYDGQVLQKLFEKLESEKLNVAEVTQSEIAQKQKLQTVLEKINETLKLPPRSIKWNVDSVHAKSLVAILHLLVALSQYFRAPIRLPDHVSIQVVVVQKREGILQSRQIQEEITGNTEALSGRHERDAFDTLFDHAPDKLNVVKKTLITFVNKHLNKLNLEVTELETQFADGVYLVLLMGLLEGYFVPLHSFFLTPDSFEQKVLNVSFAFELMQDGGLEKPKPRPEDIVNCDLKSTLRVLYNLFTKYRNVE
# B5: CD59 glycoprotein (protein, UniProt P13987 26-102, looked up)
# CD59 glycoprotein: LQCYNCPNPTADCKTAVNCSSDFDACLITKAGLQVYNKCWKFEHCNFNDVTTRLRENELTYYCCKKDLCNFNEQLEN
# B6: Inactive tyrosine-protein kinase 7 (protein, UniProt Q13308 31-1070, looked up)
# Inactive tyrosine-protein …: AIVFIKQPSSQDALQGRRALLRCEVEAPGPVHVYWLLDGAPVQDTERRFAQGSSLSFAAVDRLQDSGTFQCVARDDVTGEEARSANASFNIKWIEAGPVVLKHPASEAEIQPQTQVTLRCHIDGHPRPTYQWFRDGTPLSDGQSNHTVSSKERNLTLRPAGPEHSGLYSCCAHSAFGQACSSQNFTLSIADESFARVVLAPQDVVVARYEEAMFHCQFSAQPPPSLQWLFEDETPITNRSRPPHLRRATVFANGSLLLTQVRPRNAGIYRCIGQGQRGPPIILEATLHLAEIEDMPLFEPRVFTAGSEERVTCLPPKGLPEPSVWWEHAGVRLPTHGRVYQKGHELVLANIAESDAGVYTCHAANLAGQRRQDVNITVATVPSWLKKPQDSQLEEGKPGYLDCLTQATPKPTVVWYRNQMLISEDSRFEVFKNGTLRINSVEVYDGTWYRCMSSTPAGSIEAQARVQVLEKLKFTPPPQPQQCMEFDKEATVPCSATGREKPTIKWERADGSSLPEWVTDNAGTLHFARVTRDDAGNYTCIASNGPQGQIRAHVQLTVAVFITFKVEPERTTVYQGHTALLQCEAQGDPKPLIQWKGKDRILDPTKLGPRMHIFQNGSLVIHDVAPEDSGRYTCIAGNSCNIKHTEAPLYVVDKPVPEESEGPGSPPPYKMIQTIGLSVGAAVAYIIAVLGLMFYCKKRCKAKRLQKQPEGEEPEMECLNGGPLQNGQPSAEIQEEVALTSLGSGPAATNKRHSTSDKMHFPRSSLQPITTLGKSEFGEVFLAKAQGLEEGVAETLVLVKSLQSKDEQQQLDFRRELEMFGKLNHANVVRLLGLCREAEPHYMVLEYVDLGDLKQFLRISKSKDEKLKSQPLSTKQKVALCTQVALGMEHLSNNRFVHKDLAARNCLVSAQRQVKVSALGLSKDVYNSEYYHFRQAWVPLRWMSPEAILEGDFSTKSDVWAFGVLMWEVFTHGEMPHGGQADDEVLADLQAGKARLPQPEGCPSKLYRLMQRCWALSPKDRPSFSEIASALGDSTVDSKP
# B7: Vinculin (protein, UniProt P18206 1-1134, looked up)
# Vinculin: MPVFHTRTIESILEPVAQQISHLVIMHEEGEVDGKAIPDLTAPVAAVQAAVSNLVRVGKETVQTTEDQILKRDMPPAFIKVENACTKLVQAAQMLQSDPYSVPARDYLIDGSRGILSGTSDLLLTFDEAEVRKIIRVCKGILEYLTVAEVVETMEDLVTYTKNLGPGMTKMAKMIDERQQELTHQEHRVMLVNSMNTVKELLPVLISAMKIFVTTKNSKNQGIEEALKNRNFTVEKMSAEINEIIRVLQLTSWDEDAWASKDTEAMKRALASIDSKLNQAKGWLRDPSASPGDAGEQAIRQILDEAGKVGELCAGKERREILGTCKMLGQMTDQVADLRARGQGSSPVAMQKAQQVSQGLDVLTAKVENAARKLEAMTNSKQSIAKKIDAAQNWLADPNGGPEGEEQIRGALAEARKIAELCDDPKERDDILRSLGEISALTSKLADLRRQGKGDSPEARALAKQVATALQNLQTKTNRAVANSRPAKAAVHLEGKIEQAQRWIDNPTVDDRGVGQAAIRGLVAEGHRLANVMMGPYRQDLLAKCDRVDQLTAQLADLAARGEGESPQARALASQLQDSLKDLKARMQEAMTQEVSDVFSDTTTPIKLLAVAATAPPDAPNREEVFDERAANFENHSGKLGATAEKAAAVGTANKSTVEGIQASVKTARELTPQVVSAARILLRNPGNQAAYEHFETMKNQWIDNVEKMTGLVDEAIDTKSLLDASEEAIKKDLDKCKVAMANIQPQMLVAGATSIARRANRILLVAKREVENSEDPKFREAVKAASDELSKTISPMVMDAKAVAGNISDPGLQKSFLDSGYRILGAVAKVREAFQPQEPDFPPPPPDLEQLRLTDELAPPKPPLPEGEVPPPRPPPPEEKDEEFPEQKAGEVINQPMMMAARQLHDEARKWSSKPGIPAAEVGIGVVAEADAADAAGFPVPPDMEDDYEPELLLMPSNQPVNQPILAAAQSLHREATKWSSKGNDIIAAAKRMALLMAEMSRLVRGGSGTKRALIQCAKDIAKASDEVTRLAKEVAKQCTDKRIRTNLLQVCERIPTISTQLKILSTVKATMLGRTNISDEESEQATEMLVHNAQNLMQSVKETVREAEAASIKIRTDAGFTLRWVRKTPWYQ
# B8: Adipocyte plasma membrane-associated protein (protein, UniProt Q9HDC9 2-416, looked up)
# Adipocyte plasma …: SEADGLRQRRPLRPQVVTDDDGQAPEAKDGSSFSGRVFRVTFLMLAVSLTVPLLGAMMLLESPIDPQPLSFKEPPLLLGVLHPNTKLRQAERLFENQLVGPESIAHIGDVMFTGTADGRVVKLENGEIETIARFGSGPCKTRDDEPVCGRPLGIRAGPNGTLFVADAYKGLFEVNPWKREVKLLLSSETPIEGKNMSFVNDLTVTQDGRKIYFTDSSSKWQRRDYLLLVMEGTDDGRLLEYDTVTREVKVLLDQLRFPNGVQLSPAEDFVLVAETTMARIRRVYVSGLMKGGADLFVENMPGFPDNIRPSSSGGYWVGMSTIRPNPGFSMLDFLSERPWIKRMIFKLFSQETVMKFVPRYSLVLELSDSGAFRRSLHDPDGLVATYISEVHEHDGHLYLGSFRSPFLCRLSLQAV
# B9: Ras-related protein Ral-A (protein, UniProt P11233 1-203, looked up)
# Ras-related protein Ral-A: MAANKPKGQNSLALHKVIMVGSGGVGKSALTLQFMYDEFVEDYEPTKADSYRKKVVLDGEEVQIDILDTAGQEDYAAIRDNYFRSGEGFLCVFSITEMESFAATADFREQILRVKEDENVPFLLVGNKSDLEDKRQVSVEEAKNRAEQWNVNYVETSAKTRANVDKVFFDLMREIRARKMEDSKEKNGKKKRKSLAKRIRERC
# Test system: human endometrial epithelial cells (HEECs)
# Assay: LC-MS/MS analysis of plasma membrane-enriched proteins of HEECs
# Conditions: sample 1, proliferative phase
row,Molecule,"Total unique peptides, Samples 1"
1,B1,3
2,B2,8
3,B3,2
4,B4,4
5,B5,3
6,B6,9
7,B7,17
8,B8,1
9,B9,3

# Same assay, conditions: sample 2, proliferative phase
row,Molecule,"Total unique peptides, Samples 2"
1,B1,3
2,B2,8
3,B3,3
4,B4,6
5,B5,2
6,B6,8
7,B7,26
8,B8,1
9,B9,2

# Same assay, conditions: sample 3, proliferative phase
row,Molecule,"Total unique peptides, Samples 3"
1,B1,2
2,B2,2
3,B3,1
4,B4,2
5,B5,4
6,B6,2
7,B7,20
8,B8,1
9,B9,2
